Experimental data published in PubChem BioAssay AID504467 (National Center for Advancing Translational Sciences (NCATS), 2011).
The campaign covered roughly 330,000 compounds. About 7,700 (2.3%) were called active. The inconclusive results got no clear call from the source; some entries with a clear call stand among them for comparison. Calls come from the whole dose curve; as a rule, active = well fitted inhibition curve with a large enough effect; inconclusive = small, poorly fitted or top-dose-only effect, or effect the other way; inactive = flat fitted curve, though single readings scatter. A potency beside an inconclusive call is a rough fit, not a confirmed value.

assay: qHTS screen for small molecules that inhibit ELG1-dependent DNA repair in human embryonic kidney (HEK293T) cells expressing luciferase-tagged ELG1; conditions: HEK293T ELG1-luciferase reporter, luminescence, 16 h, DNA damage induced by 5-fluorouridine; activity change, negative = inhibition: at 46.1 µM (top of the series); note: nearly all actives have a fitted effect of over 55% in size
How it was run: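 Step one: seed 2,000 cells per well. Step two: pin-transfer compound or DMSO alongside 5-fluorouridine. Step three: incubate 16 hr, 37 °C, 5% CO2. Step four: add ONE-Glo, wait 30 min, read luminescence.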
% is set by controls: 0 for no effect and ±100 for the full control effect; potency is the fitted concentration of half-maximal effect.

Row | Structure (SMILES) | activity change, negative = inhibition | Potency
1 | CCCCOC1(c2ccccc2)NC(=S)NN=C1c1ccccc1 (stereo not drawn) | inactive: -1.19% | –
2 | CCCOc1ccc(NC(=O)C2CC(=O)N/C(=N/N=C(C)/C=C/c3ccc(N(C)C)cc3)S2)cc1 (stereo not drawn) | – | inconclusive: 18.4 µM [activator, partial curve]
3 | COc1ccc(S(=O)(=O)NC(C)C(=O)NCc2ccccn2)cc1Cl (stereo not drawn) | inactive: 5.57% | –
4 | CC(c1cccnc1)N(C(=O)Nc1ccccc1)C1CCCCC1 (stereo not drawn) | – | inconclusive: 32.6 µM [activator, partial curve, poor fit]
5 | Cc1ccc(C(=O)N/C(=C/C=C/c2ccccc2)C(=O)NCc2ccco2)cc1 | – | inconclusive: 32.6 µM [inhibitor, partial curve, poor fit]
6 | CCOc1cc(CNCCCN2CCOCC2)cc(Cl)c1OCC(=O)NC(C)(C)C | inactive: 5.32% | –
7 | CC(NC(=O)COC(=O)c1cccnc1Cl)C12CC3CC(CC(C3)C1)C2 (stereo not drawn) | – | inconclusive: 11.6 µM [activator, partial curve]
8 | Cc1ccc(C(=O)NC(=S)Nc2ccc(N3CCOCC3)cc2)c(C)c1 | inactive: -21.5% | –
9 | O=C(CC1OC(=O)c2ccccc21)Nc1cccc(S(=O)(=O)N2CCCCCC2)c1 (stereo not drawn) | – | inconclusive: 25.9 µM [inhibitor, partial curve, poor fit]
10 | Cc1cc(C)c(NC(=S)N(Cc2cccnc2)Cc2ccco2)c(C)c1 | – | inconclusive: 29.1 µM [inhibitor, partial curve, poor fit]
11 | NCCNC(=O)c1c(O)c2cccc3c2n(c1=O)CCC3 | – | inconclusive: 18.3 µM [inhibitor, single point]
12 | O=C(Nc1cccc(C(=O)O)c1)/C(=C\c1ccc(F)cc1)NC(=O)c1ccco1 | – | inconclusive: 4.61 µM [activator, full curve, poor fit]
13 | COc1ccc(Nc2nc(CC(C)=O)ns2)cc1 | – | inconclusive: 18.4 µM [activator, partial curve]
14 | CC(=O)c1c(C)[nH]c(C(=O)CSc2nc3ccc(C)cc3[nH]2)c1C | – | active: 11.6 µM
15 | CC(=O)c1c(C)[nH]c(C(=O)Nc2cccc(S(=O)(=O)N3CCCC3)c2)c1C | – | inconclusive: 11.6 µM [activator, partial curve]
16 | COc1ccc(N2CCN(C(=O)CSc3nnc4c(C)cc5c(C)cc(C)cc5n34)CC2)cc1 | – | inconclusive: 5.8 µM [inhibitor, full curve]
17 | Cc1ccc(-c2nnc(SCC(=O)NC3CC3)o2)cc1 | – | inconclusive: 18.3 µM [activator, partial curve]
18 | CCC(C)n1c(=S)[nH]c2c(sc3ccc([N+](=O)[O-])cc32)c1=O (stereo not drawn) | – | inconclusive: 18.4 µM [inhibitor, single point]
19 | C#CCN1C(=O)C(O)(CC(=O)c2cccc(OC)c2)c2ccccc21 (stereo not drawn) | inactive: -5.32% | –
20 | CC1CCCN(C2=C(NS(=O)(=O)c3ccc(Br)cc3)C(=O)c3ccccc3C2=O)C1 (stereo not drawn) | – | inconclusive: 25.9 µM [inhibitor, single point]
21 | CC(=O)c1ccc(S(=O)(=O)N(Cc2cc3cc4c(cc3[nH]c2=O)OCCO4)CC2CCCO2)cc1 (stereo not drawn) | – | inconclusive: 20.6 µM [activator, partial curve]
22 | NS(=O)(=O)c1cccc(NC(=O)CSc2nnc(-c3ccccc3F)n2C2CC2)c1 | – | inconclusive: 29.1 µM [inhibitor, single point]
23 | COc1ccc(CN(Cc2cccnc2)S(=O)(=O)c2ccc(-n3cnnn3)c(C)c2)cc1OC | – | inconclusive: 23.1 µM [inhibitor, single point]

Sorted by molecular weight (smallest number first): part of the list above
Row | Structure (SMILES) | activity change, negative = inhibition | Potency
13 | COc1ccc(Nc2nc(CC(C)=O)ns2)cc1 | – | inconclusive: 18.4 µM [activator, partial curve]
11 | NCCNC(=O)c1c(O)c2cccc3c2n(c1=O)CCC3 | – | inconclusive: 18.3 µM [inhibitor, single point]
17 | Cc1ccc(-c2nnc(SCC(=O)NC3CC3)o2)cc1 | – | inconclusive: 18.3 µM [activator, partial curve]
4 | CC(c1cccnc1)N(C(=O)Nc1ccccc1)C1CCCCC1 (stereo not drawn) | – | inconclusive: 32.6 µM [activator, partial curve, poor fit]
19 | C#CCN1C(=O)C(O)(CC(=O)c2cccc(OC)c2)c2ccccc21 (stereo not drawn) | inactive: -5.32% | –
1 | CCCCOC1(c2ccccc2)NC(=S)NN=C1c1ccccc1 (stereo not drawn) | inactive: -1.19% | –
10 | Cc1cc(C)c(NC(=S)N(Cc2cccnc2)Cc2ccco2)c(C)c1 | – | inconclusive: 29.1 µM [inhibitor, partial curve, poor fit]
8 | Cc1ccc(C(=O)NC(=S)Nc2ccc(N3CCOCC3)cc2)c(C)c1 | inactive: -21.5% | –
7 | CC(NC(=O)COC(=O)c1cccnc1Cl)C12CC3CC(CC(C3)C1)C2 (stereo not drawn) | – | inconclusive: 11.6 µM [activator, partial curve]
3 | COc1ccc(S(=O)(=O)NC(C)C(=O)NCc2ccccn2)cc1Cl (stereo not drawn) | inactive: 5.57% | –
5 | Cc1ccc(C(=O)N/C(=C/C=C/c2ccccc2)C(=O)NCc2ccco2)cc1 | – | inconclusive: 32.6 µM [inhibitor, partial curve, poor fit]
9 | O=C(CC1OC(=O)c2ccccc21)Nc1cccc(S(=O)(=O)N2CCCCCC2)c1 (stereo not drawn) | – | inconclusive: 25.9 µM [inhibitor, partial curve, poor fit]
23 | COc1ccc(CN(Cc2cccnc2)S(=O)(=O)c2ccc(-n3cnnn3)c(C)c2)cc1OC | – | inconclusive: 23.1 µM [inhibitor, single point]
20 | CC1CCCN(C2=C(NS(=O)(=O)c3ccc(Br)cc3)C(=O)c3ccccc3C2=O)C1 (stereo not drawn) | – | inconclusive: 25.9 µM [inhibitor, single point]
2 | CCCOc1ccc(NC(=O)C2CC(=O)N/C(=N/N=C(C)/C=C/c3ccc(N(C)C)cc3)S2)cc1 (stereo not drawn) | – | inconclusive: 18.4 µM [activator, partial curve]
21 | CC(=O)c1ccc(S(=O)(=O)N(Cc2cc3cc4c(cc3[nH]c2=O)OCCO4)CC2CCCO2)cc1 (stereo not drawn) | – | inconclusive: 20.6 µM [activator, partial curve]

The listing continues:

Row | Structure (SMILES) | activity change, negative = inhibition | Potency
24 | Nc1n[nH]c(-c2ccccc2)n1 | inactive: 26.8% | –
25 | Clc1ccccc1N=C1NN=C(c2cccs2)CS1 | – | inconclusive: 7.3 µM [activator, partial curve]
26 | O=C(COC(=O)c1ccc[nH]c1=O)NCC12CC3CC(CC(C3)C1)C2 | – | inconclusive: 11.6 µM [activator, partial curve]
27 | CC(=O)Nc1ccc(C(=O)/C=C/c2ccco2)cc1 | – | inconclusive: 16.4 µM [activator, single point]
28 | CCN1CCCC1CNC(=O)c1cc2cc(OC)c(OC)cc2[nH]1 (stereo not drawn) | – | inconclusive: 20.6 µM [activator, single point]
29 | CCc1c(C)nc(N2CCN(c3ccc(OC)cc3)CC2)[nH]c1=O | inactive: 1.64% | –
30 | O=C(NNC(=O)c1ccccc1C(=O)O)c1ccc(S(=O)(=O)N2CCCCC2)cc1 | inactive: 16.3% | –
31 | COc1cc(OC)c(OC)cc1CN1CCN(Cc2ccc(C(F)(F)F)cc2)CC1 | – | inconclusive: 7.3 µM [inhibitor, partial curve, poor fit]
32 | Nc1nc2ccccc2n1Cc1ccc(Cl)c(Cl)c1 | inactive: -18.4% | –
33 | CN(c1ccccc1)S(=O)(=O)c1ccc(C(=O)Nc2nnc(C3=COCCO3)o2)cc1 | – | inconclusive: 18.3 µM [inhibitor, single point]
34 | O=C(Oc1ccc(-c2cnc3ccccc3n2)cc1)c1ccco1 | – | inconclusive: 4.11 µM [activator, full curve]
35 | COc1ccc2nc3cc(Cl)ccc3c(C#N)c2c1 | inactive: 7.34% | –
36 | CC(C)CN(/C=N/c1sc2c(c1C#N)CCCCC2)CC(C)C | inactive: 3.07% | –
37 | C=CCn1c(-c2ccccc2)c[nH]c1=S | – | inconclusive: 5.17 µM [activator, partial curve]
38 | Cc1nc(NC(=O)CSc2nnnn2C)sc1C | – | inconclusive: 20.6 µM [activator, partial curve]
39 | Nc1c(-c2cccc(Cl)c2)cnn1-c1cccc(C(F)(F)F)c1 | inactive: 0% | –
40 | CCN1CCN(C(=O)c2cc(COc3c(C)cccc3C)on2)CC1 | – | inconclusive: 11.6 µM [activator, partial curve]
41 | COC(=O)c1c(NC(=O)CN2CCC(C(N)=O)CC2)c2c(C)cccc2n1C | – | inconclusive: 5.8 µM [inhibitor, partial curve, poor fit]
42 | Cc1cccc(NC(=O)CSc2nccn2Cc2ccco2)c1C | – | inconclusive: 23.1 µM [activator, single point]
43 | CC(C)Cn1c(CNC(=O)c2ccccc2)nc2ccccc21 | inactive: -15.7% | –
44 | Cc1ccc(S(=O)(=O)N(C)C)cc1NC(=O)COC(=O)c1ccc2c(c1)OCCO2 | – | inconclusive: 6.51 µM [activator, partial curve, poor fit]
45 | Cc1nn(-c2ccccc2)c(Cl)c1/C=N/NC(=O)c1ccc(NS(=O)(=O)c2cccs2)cc1 | – | inconclusive: 7.3 µM [activator, partial curve]
46 | CCCCn1c(SCC(=O)NCc2ccccc2)nc2ccc(N3CCOCC3)cc2c1=O | – | inconclusive: 14.6 µM [inhibitor, partial curve, poor fit]

Row | Structure (SMILES) | activity change, negative = inhibition | Potency
47 | O=C(/C=C/c1ccco1)c1ccc(O)cc1 | – | inconclusive: 18.3 µM [activator, partial curve]
48 | O=C(Nc1cc(C(F)(F)F)cc(C(F)(F)F)c1)c1ccc(Cn2cc(C(F)(F)F)ccc2=O)cc1 | inactive: -4.11% | –
49 | Cn1nc(C(C)(C)C)c([N+](=O)[O-])c1C(=O)Nc1ccc(Br)cc1 | – | inconclusive: 29.1 µM [inhibitor, single point]
50 | O=C(Nc1ccc(Cl)cc1)Nc1cnccn1 | inactive: 7.39% | –
51 | O=S(=O)(Nc1ccc2c(c1)OCCO2)c1cnc[nH]1 | – | inconclusive: 8.2 µM [activator, partial curve, poor fit]
52 | CCCCOc1ccc(C(=O)NCC(=O)N2CCN(Cc3ccc4c(c3)OCO4)CC2)cc1 | – | inconclusive: 14.6 µM [inhibitor, partial curve, poor fit]
53 | CS(=O)(=O)N1CCN(c2ccccc2NC(=O)Nc2cccc(Cl)c2)CC1 | inactive: -24.7% | –
54 | Cc1ccc(NC(=O)c2c(C(F)(F)F)nn(C)c2SCc2cccc(C(F)(F)F)c2)cc1C | – | inconclusive: 2.82 µM [activator, partial curve, poor fit]
55 | COc1ccc(-n2c(NN)nc3sc4c(c3c2=O)CCCC4)cc1 | inactive: -14.2% | –
56 | N#Cc1ccc(-c2cccnc2)nc1SCC(=O)c1ccccc1 | – | inconclusive: 4.61 µM [activator, full curve]
57 | CCN1CCN(C(=O)C(=O)c2cn(CC(=O)N3CCCC3)c3ccccc23)CC1 | – | inconclusive: 14.6 µM [activator, partial curve, poor fit]
58 | COc1ccc(C(CNC(=O)Nc2cccc(C)c2)N2CCN(C)CC2)cc1 (stereo not drawn) | – | inconclusive: 20.6 µM [activator, single point]
59 | Cn1cnnc1Sc1ccc(/C=C/C(=O)c2ccc(O)cc2)cc1[N+](=O)[O-] | – | inconclusive: 29.1 µM [inhibitor, single point]
60 | Cc1cc(C)n(Cc2ccc(C(=O)Nc3ccc(Br)cc3C)o2)n1 | inactive: -5.17% | –
61 | O=C(CCNC(=O)c1ccccc1Cl)NN=Cc1ccccc1[N+](=O)[O-] | inactive: 1.49% | –
62 | OCC[C@@H]1C[C@@H](O)[C@H](O)[C@]2(CCc3ccccc3O2)O1 | inactive: -7.51% | –
63 | CCN(C[C@H]1N[C@@](C)(C(=O)OC)[C@H]2C(=O)N(C)C(=O)[C@@H]12)S(=O)(=O)c1ccc(F)cc1 | – | inconclusive: 0.82 µM [activator, single point]
64 | Brc1cccc(-c2nnc3sc(CNCc4ccco4)cn23)c1 | – | inconclusive: 9.2 µM [inhibitor, partial curve, poor fit]
65 | Cc1cccc(C)c1NC(=O)CNC(=O)C(Cc1ccccc1)NC(=O)c1ccccc1 (stereo not drawn) | inactive: 1.68% | –
66 | COc1ccc(-c2c(-c3ccc(OC)cc3O)nc(C)nc2C(F)(F)F)cc1 | – | inconclusive: 3.66 µM [activator, partial curve, poor fit]
67 | Cc1ccc(S(=O)(=O)n2[nH]c(=O)cc2NC(=O)c2cccs2)cc1 | inactive: 0% | –
68 | Cc1[nH]nc(N)c1N=Nc1ccc(Br)cc1 | inactive: 21.4% | –
